Consider three substances from article doi:10.1101/2022.06.15.495552.

Chains of the proteins cited; added tags and fusions are not shown. Residues count along the entry.
UniProt Q12905, 29-390: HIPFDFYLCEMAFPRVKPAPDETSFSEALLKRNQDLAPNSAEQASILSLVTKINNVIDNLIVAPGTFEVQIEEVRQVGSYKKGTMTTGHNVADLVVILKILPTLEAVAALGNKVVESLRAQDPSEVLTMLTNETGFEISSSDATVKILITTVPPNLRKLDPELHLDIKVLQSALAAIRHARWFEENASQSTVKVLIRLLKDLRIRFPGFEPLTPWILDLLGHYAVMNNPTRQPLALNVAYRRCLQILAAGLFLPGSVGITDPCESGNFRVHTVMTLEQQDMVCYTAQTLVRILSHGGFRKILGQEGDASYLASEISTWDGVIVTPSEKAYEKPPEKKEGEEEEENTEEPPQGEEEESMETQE
UniProt Q12905, whole entry: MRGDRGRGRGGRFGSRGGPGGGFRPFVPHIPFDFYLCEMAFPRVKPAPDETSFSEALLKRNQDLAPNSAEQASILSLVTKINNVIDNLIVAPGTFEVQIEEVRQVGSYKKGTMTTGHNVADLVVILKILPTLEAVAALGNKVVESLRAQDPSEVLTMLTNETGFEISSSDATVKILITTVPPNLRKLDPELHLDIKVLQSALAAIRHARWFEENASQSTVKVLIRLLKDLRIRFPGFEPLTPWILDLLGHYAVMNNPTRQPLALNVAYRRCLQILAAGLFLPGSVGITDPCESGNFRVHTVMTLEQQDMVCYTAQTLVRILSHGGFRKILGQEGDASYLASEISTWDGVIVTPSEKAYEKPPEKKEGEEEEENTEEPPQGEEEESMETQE
UniProt Q96KR1, 317-1074: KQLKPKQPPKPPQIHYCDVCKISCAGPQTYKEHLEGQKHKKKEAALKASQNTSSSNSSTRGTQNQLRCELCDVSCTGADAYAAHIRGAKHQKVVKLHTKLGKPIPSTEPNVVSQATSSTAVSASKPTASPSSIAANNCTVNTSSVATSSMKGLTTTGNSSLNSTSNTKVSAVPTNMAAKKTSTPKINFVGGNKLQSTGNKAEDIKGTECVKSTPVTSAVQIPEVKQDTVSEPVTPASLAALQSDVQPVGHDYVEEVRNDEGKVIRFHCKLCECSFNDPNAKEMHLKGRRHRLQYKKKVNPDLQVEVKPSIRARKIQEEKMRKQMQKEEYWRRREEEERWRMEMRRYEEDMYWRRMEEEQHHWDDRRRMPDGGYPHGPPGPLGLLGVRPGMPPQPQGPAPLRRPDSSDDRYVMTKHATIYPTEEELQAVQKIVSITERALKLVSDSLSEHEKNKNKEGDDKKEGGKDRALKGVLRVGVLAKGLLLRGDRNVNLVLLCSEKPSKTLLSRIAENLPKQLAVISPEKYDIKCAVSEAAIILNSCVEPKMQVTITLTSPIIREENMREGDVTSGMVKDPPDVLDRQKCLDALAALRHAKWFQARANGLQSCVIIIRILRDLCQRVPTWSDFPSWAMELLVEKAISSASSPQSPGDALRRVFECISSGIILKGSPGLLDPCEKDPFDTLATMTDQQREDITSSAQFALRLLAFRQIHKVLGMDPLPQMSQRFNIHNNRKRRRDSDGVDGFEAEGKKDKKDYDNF
UniProt Q96KR1, 725-1074: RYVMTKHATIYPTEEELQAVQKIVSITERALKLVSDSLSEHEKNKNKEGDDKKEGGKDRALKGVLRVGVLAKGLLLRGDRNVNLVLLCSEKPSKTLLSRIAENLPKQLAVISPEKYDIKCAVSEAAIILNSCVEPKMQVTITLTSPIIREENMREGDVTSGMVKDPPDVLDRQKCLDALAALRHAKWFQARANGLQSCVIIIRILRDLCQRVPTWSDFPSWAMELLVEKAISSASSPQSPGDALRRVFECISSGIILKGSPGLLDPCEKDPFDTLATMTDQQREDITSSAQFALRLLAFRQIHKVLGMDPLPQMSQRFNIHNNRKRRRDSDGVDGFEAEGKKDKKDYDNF
UniProt Q96KR1, whole entry: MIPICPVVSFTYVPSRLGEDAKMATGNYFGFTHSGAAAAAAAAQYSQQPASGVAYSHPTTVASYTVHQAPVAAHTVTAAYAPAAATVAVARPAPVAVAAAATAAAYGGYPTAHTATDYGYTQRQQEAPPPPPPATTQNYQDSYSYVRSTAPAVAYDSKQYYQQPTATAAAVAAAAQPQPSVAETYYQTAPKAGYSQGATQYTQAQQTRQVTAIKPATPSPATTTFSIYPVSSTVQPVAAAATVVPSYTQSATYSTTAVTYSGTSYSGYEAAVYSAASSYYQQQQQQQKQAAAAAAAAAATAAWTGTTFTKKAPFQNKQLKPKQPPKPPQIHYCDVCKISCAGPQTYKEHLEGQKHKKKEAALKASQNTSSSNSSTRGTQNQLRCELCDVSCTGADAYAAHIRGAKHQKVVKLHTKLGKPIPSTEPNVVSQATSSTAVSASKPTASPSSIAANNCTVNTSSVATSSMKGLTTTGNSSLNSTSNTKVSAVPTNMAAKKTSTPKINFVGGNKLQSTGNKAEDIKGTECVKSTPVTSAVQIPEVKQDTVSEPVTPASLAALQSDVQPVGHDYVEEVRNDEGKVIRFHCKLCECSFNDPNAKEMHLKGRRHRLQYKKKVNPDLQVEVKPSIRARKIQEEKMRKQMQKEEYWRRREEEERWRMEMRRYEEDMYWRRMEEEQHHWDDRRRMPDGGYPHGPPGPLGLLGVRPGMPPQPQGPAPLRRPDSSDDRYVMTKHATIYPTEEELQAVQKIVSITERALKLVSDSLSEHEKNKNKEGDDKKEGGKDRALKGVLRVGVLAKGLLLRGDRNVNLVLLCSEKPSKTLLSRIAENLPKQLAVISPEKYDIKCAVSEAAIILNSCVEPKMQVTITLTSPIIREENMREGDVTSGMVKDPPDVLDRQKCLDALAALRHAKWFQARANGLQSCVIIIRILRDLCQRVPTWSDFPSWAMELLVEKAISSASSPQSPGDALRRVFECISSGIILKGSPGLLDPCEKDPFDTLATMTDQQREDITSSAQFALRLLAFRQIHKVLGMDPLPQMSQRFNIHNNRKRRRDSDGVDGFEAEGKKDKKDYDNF

For assay [1], the target named is ILF2_(29-390) (human) (UniProt Q12905). The assay is described as follows: SEC. (SEC sorts molecules by how far they enter the pores of the column.)
In assay [2] the target is 3XFLAG-ILF2 (human) (UniProt Q12905). The assay can be described thus: co-IP.

These are yes or no findings as the source states them, for the method shown. For part of these data: Binding seen in cells or lysates may run through a third protein. Some entries that bind do so weakly or less than the wild type.

Take “ZFRDZF (residues 725-1074) (from UniProt Q96KR1 725-1074) (domain or fragment)”: the binding result in assay [1] was “binds”.

For “ZFR_(long) (residues 317-1074) (from UniProt Q96KR1 317-1074) (domain or fragment)”, the binding result in assay [1] is reported as “binds”.

As to “endogenous ZFR (from UniProt Q96KR1 1-1074)”, in assay [2], the binding entry is recorded as “binds”.
